Data published in PMC11538671.
These are yes or no findings as the source states them, for the method shown. Some results given as binding are weak or reduced against the parent protein; the word gives no strength.

Amino acid sequences for entries named in this document (tags omitted).
UniProt Q9Y6Q9: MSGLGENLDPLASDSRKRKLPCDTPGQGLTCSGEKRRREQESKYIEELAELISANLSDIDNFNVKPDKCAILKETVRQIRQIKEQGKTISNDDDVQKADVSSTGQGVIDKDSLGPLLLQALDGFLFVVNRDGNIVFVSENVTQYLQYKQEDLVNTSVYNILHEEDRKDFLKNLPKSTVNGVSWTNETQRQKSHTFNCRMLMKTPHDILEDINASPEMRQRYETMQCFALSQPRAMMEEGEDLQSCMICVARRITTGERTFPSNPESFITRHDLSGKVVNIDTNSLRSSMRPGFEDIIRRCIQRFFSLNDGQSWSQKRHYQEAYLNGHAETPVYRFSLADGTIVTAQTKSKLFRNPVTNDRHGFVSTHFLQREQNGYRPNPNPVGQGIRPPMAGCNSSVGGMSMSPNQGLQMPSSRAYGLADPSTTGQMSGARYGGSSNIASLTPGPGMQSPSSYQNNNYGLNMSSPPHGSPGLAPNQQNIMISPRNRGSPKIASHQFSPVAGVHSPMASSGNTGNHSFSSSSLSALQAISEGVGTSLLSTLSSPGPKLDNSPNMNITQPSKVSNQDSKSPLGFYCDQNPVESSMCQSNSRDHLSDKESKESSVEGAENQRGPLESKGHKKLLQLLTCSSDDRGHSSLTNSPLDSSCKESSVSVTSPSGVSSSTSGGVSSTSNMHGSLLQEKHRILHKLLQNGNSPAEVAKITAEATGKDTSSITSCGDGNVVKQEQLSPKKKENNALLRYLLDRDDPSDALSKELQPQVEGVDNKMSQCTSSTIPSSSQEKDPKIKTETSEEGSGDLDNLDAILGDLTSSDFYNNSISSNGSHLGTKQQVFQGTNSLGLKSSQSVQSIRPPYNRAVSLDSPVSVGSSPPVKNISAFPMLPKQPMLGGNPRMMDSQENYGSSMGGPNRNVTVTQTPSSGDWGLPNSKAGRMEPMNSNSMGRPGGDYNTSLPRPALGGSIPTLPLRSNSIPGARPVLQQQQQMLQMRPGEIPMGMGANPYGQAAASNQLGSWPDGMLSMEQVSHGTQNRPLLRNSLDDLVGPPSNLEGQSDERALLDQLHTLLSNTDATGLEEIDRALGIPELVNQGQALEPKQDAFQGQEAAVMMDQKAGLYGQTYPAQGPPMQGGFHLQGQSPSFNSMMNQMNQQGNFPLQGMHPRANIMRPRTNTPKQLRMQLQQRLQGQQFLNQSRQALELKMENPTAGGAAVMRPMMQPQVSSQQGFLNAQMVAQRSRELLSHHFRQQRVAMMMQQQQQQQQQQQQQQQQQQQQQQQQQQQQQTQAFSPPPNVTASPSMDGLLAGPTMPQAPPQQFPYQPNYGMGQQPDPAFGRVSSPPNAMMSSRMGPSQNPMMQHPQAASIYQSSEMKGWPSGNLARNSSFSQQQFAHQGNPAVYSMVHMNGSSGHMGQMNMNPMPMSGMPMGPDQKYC
UniProt O95251: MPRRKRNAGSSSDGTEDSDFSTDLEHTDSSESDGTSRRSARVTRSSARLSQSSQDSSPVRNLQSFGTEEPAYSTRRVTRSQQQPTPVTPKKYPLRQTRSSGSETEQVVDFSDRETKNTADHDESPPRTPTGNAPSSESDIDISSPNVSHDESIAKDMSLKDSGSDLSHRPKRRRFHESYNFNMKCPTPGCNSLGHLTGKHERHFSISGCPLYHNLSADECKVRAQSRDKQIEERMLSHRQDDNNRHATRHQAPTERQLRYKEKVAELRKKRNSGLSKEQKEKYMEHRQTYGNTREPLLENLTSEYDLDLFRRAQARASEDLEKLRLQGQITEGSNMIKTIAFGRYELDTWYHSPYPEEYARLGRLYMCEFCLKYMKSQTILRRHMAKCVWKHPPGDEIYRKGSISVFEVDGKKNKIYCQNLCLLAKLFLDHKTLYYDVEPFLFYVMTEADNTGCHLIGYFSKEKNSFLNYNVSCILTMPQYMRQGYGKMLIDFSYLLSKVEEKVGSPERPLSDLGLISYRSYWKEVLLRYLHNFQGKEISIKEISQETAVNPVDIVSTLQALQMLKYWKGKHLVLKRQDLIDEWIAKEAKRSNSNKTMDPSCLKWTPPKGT

Target: T1, sine oculis homeobox 1 (SIX1) (human (endogenous in HepG2)) (UniProt Q15475)
T1 sequence: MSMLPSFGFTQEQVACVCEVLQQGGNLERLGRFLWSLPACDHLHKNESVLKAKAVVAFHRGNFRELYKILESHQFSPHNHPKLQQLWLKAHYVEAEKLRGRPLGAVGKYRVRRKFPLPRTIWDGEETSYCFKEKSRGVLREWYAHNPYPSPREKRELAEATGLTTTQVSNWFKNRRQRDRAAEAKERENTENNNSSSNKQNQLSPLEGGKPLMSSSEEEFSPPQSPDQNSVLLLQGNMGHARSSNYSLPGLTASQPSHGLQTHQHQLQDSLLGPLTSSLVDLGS
Assay: Re-ChIP (sequential chromatin immunoprecipitation); cross-linked chromatin of HepG2 cells; complexes eluted from the primary immunoprecipitation with 10 mM DTT at 37 °C for 30 min, diluted 1:50 in 1% Triton X-100, 2 mM EDTA, 150 mM NaCl, 20 mM Tris/HCl pH 8.1, re-immunoprecipitated with the second antibodies; read-out real-time PCR of lipogenic gene promoters

| Substance | binding |
| --- | --- |
| amplified in breast cancer 1 (AIB1) (from UniProt Q9Y6Q9 1-1424) | binds |
| lysine acetyltransferase 7 (HBO1/KAT7) (from UniProt O95251 1-611) | binds |
